Data source: PubChem BioAssay AID1224830 (NIAID, 2016)
Screen: 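Regulators of TLR4 signalling towards TNF-alpha in macrophage-like cells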 (primary screen). System: human THP-1 monocytic leukaemia cells, TNF dual-luciferase reporter clone, PMA-differentiated to macrophage-like cells. Reagent: siRNA pool against human genes, 50 nM. Duration: LPS for 4 h, given about 3 days after siRNA transfection. Conditions: bacterial LPS (TLR4 ligand), 10 ng/ml. Measured: 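Ratio of firefly to renilla light, scaled to the plate median and expressed as a robust z-score per replicate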. Scale: TNF reporter robust z-score: higher = stronger TNF reporter response to LPS. Hit rule: 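Each well counts as active if its z-score is over 2.8 or under -1.5; controls are left without a call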.
The deposit covers about 18,000 reagents; shown is a part drawn at random. Over the whole deposit, about 2,900 (16%) got an active call. 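Calls are made per well; low scores hint the gene aids the LPS response, high scores that it dampens it.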 Entries without a mark were called inactive. The numbers tell different reagents against one gene apart. Repeated entries: four replicate wells of each siRNA pool. No sequences are given here.

The opening 2 entries, to show the layout:
LRIG3: TNF reporter robust z-score = -0.82
LRIG3: TNF reporter robust z-score = 0.54

The list itself, repeating the preview:
LRIG3: TNF reporter robust z-score = -0.82
LRIG3: TNF reporter robust z-score = 0.54
LRIG3: TNF reporter robust z-score = -0.48
LRIG3: TNF reporter robust z-score = -0.06
SPRYD7: TNF reporter robust z-score = -0.14
SPRYD7: TNF reporter robust z-score = 0.45
SPRYD7: TNF reporter robust z-score = 0.7
SPRYD7: TNF reporter robust z-score = 0.73
RPS19: TNF reporter robust z-score = -0.34
RPS19: TNF reporter robust z-score = 0.12
RPS19: TNF reporter robust z-score = 0.26
RPS19: TNF reporter robust z-score = -0.31
KCNJ1: TNF reporter robust z-score = 1.64
KCNJ1: TNF reporter robust z-score = 0.84
KCNJ1: TNF reporter robust z-score = 0.78
KCNJ1: TNF reporter robust z-score = 0.32
PRXL2A: TNF reporter robust z-score = 0.06
PRXL2A: TNF reporter robust z-score = -0.18
PRXL2A: TNF reporter robust z-score = 0.2
PRXL2A: TNF reporter robust z-score = 0.23
RAE1: TNF reporter robust z-score = -0.64
RAE1: TNF reporter robust z-score = -0.37
RAE1: TNF reporter robust z-score = -1.34
RAE1: TNF reporter robust z-score = -1.07
TRPM7: TNF reporter robust z-score = 0.55
TRPM7: TNF reporter robust z-score = 0.47
TRPM7: TNF reporter robust z-score = 0.91
TRPM7: TNF reporter robust z-score = -0.4
NFIB: TNF reporter robust z-score = -0.24
NFIB: TNF reporter robust z-score = -0.15
NFIB: TNF reporter robust z-score = -0.05
NFIB: TNF reporter robust z-score = 0.9
TMEM222: TNF reporter robust z-score = 0.63
TMEM222: TNF reporter robust z-score = 1.12
TMEM222: TNF reporter robust z-score = 0.13
HIBCH: TNF reporter robust z-score = 0.21
HIBCH: TNF reporter robust z-score = 0.54
HIBCH: TNF reporter robust z-score = 0.45
HIBCH: TNF reporter robust z-score = 1.47
RPL19: TNF reporter robust z-score = -1.07
RPL19: TNF reporter robust z-score = -0.13
RPL19: TNF reporter robust z-score = -0.69
RPL19: TNF reporter robust z-score = -0.73
TXNRD3 #1: TNF reporter robust z-score = 3.06 (active)
TXNRD3 #1: TNF reporter robust z-score = 2.07
TXNRD3 #1: TNF reporter robust z-score = 1.73
TXNRD3 #1: TNF reporter robust z-score = 2.71
TXNRD3 #2: TNF reporter robust z-score = -0.89
TXNRD3 #2: TNF reporter robust z-score = 0.08
TXNRD3 #2: TNF reporter robust z-score = -0.27
TXNRD3 #2: TNF reporter robust z-score = -0.21
GIMAP2: TNF reporter robust z-score = 0.52
GIMAP2: TNF reporter robust z-score = 0.55
GIMAP2: TNF reporter robust z-score = -0.89
GIMAP2: TNF reporter robust z-score = 0.26
MPHOSPH9: TNF reporter robust z-score = 0.65
MPHOSPH9: TNF reporter robust z-score = 1.01
MPHOSPH9: TNF reporter robust z-score = 0.51
MPHOSPH9: TNF reporter robust z-score = -0.4
PARD6G: TNF reporter robust z-score = -0.81
PARD6G: TNF reporter robust z-score = -0.74
PARD6G: TNF reporter robust z-score = -0.63
PARD6G: TNF reporter robust z-score = -0.86
